Data on 2 molecules can be found in patent EP2544694B1.

The chains behind the UniProt entries cited, without tags or fusion partners. Residues count along the entry.
UniProt P27918, residues 28-469: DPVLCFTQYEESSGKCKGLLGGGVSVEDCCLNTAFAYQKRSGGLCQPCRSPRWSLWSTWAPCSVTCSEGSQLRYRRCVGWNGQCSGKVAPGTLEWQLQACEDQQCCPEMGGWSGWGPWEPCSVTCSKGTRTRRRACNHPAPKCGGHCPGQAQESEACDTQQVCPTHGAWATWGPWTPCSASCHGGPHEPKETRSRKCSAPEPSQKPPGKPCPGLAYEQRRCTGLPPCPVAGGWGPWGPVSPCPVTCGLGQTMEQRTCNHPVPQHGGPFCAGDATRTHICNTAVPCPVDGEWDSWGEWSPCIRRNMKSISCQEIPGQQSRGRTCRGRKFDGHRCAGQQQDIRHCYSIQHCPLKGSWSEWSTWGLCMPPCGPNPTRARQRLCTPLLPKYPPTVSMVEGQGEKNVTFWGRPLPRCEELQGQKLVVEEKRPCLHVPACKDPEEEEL

Test [1] deals with human properdin (human) (UniProt P27918). The experiment in a line: ELISA on properdin-coated plate, peroxidase-conjugated goat anti-mouse detection.
Test [2] shares this target. Briefly: ELISA on properdin-coated plate (legend of FIG. 5).
For test [3] the target is unchanged. The experiment in a line: ELISA on properdin-coated plate.

No constants are given. Whether binding was seen depends on the method and setting. Some binding calls cover weakened binding; strength is not graded here.

B1: anti-properdin monoclonal antibody IgG (14G11) (antibody, V domains shown)
VH: QVTLKESGPGILQPSQTLSLTCSFSGFSLSTSGMGVGWIRQPSGKGLEWLAHIWWDDVKSYNPALKSRLTISKDTSSSQVFLRIASVDTADTATYYCARIGDGYYSFDYWGQGTTLTVSS
VL: DIVMTQSHKFMSTSVGDRVSISCKASQDVSDAVAWFQQKPGQSPKLLIYSPSYRYTGVPDRFTGSGSGTDFTFTISSVQAEDLAVYYCQQHYSTPWTFGGGTKLEIKR
In the case of B1, the binding result with human properdin (human) [1], with human properdin (human) [2] and in the test with human properdin (human) [3] was “binds” each time.

B2: anti-properdin Fab (of 14G11) (Fab, V domains shown)
VH: QVTLKESGPGILQPSQTLSLTCSFSGFSLSTSGMGVGWIRQPSGKGLEWLAHIWWDDVKSYNPALKSRLTISKDTSSSQVFLRIASVDTADTATYYCARIGDGYYSFDYWGQGTTLTVSS
VL: DIVMTQSHKFMSTSVGDRVSISCKASQDVSDAVAWFQQKPGQSPKLLIYSPSYRYTGVPDRFTGSGSGTDFTFTISSVQAEDLAVYYCQQHYSTPWTFGGGTKLEIKR
With B2, in the test with human properdin (human) [3], the binding entry is “binds”.
